No constants are given. Whether binding was seen depends on the method and setting. Some binding calls cover weakened binding; strength is not graded here.
Target: human TRiC subunit CCT5 (human) (UniProt P48643)
Experiment: native MS; hTRiC in ammonium acetate pH 7.5 disrupted with 25% (v/v) DMSO, analysed within 30 min; dimers assigned by mass within 12 Da; both purified

Protein sequences, listed by entry. Tags and fused reporters are not part of them. Residues count along the entry.
UniProt P48643, residues 2-541: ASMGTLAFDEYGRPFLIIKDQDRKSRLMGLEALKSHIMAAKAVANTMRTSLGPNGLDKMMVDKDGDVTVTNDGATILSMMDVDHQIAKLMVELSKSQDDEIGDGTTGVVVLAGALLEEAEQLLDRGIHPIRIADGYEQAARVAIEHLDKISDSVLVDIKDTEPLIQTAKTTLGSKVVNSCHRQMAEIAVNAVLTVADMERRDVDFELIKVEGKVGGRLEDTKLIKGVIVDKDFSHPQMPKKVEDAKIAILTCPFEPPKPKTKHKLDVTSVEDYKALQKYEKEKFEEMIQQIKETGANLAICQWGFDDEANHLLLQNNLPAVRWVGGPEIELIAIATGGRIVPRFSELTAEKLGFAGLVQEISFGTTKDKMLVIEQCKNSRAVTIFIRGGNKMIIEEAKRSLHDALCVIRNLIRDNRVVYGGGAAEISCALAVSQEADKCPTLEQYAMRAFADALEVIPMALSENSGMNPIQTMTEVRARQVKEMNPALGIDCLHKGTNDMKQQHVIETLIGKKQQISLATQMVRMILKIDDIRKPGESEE

B1: human TRiC subunit CCT4 (natural protein, UniProt P50991 2-539, looked up)
chain: PENVAPRSGATAGAAGGRGKGAYQDRDKPAQIRFSNISAAKAVADAIRTSLGPKGMDKMIQDGKGDVTITNDGATILKQMQVLHPAARMLVELSKAQDIEAGDGTTSVVIIAGSLLDSCTKLLQKGIHPTIISESFQKALEKGIEILTDMSRPVELSDRETLLNSATTSLNSKVVSQYSSLLSPMSVNAVMKVIDPATATSVDLRDIKIVKKLGGTIDDCELVEGLVLTQKVSNSGITRVEKAKIGLIQFCLSAPKTDMDNQIVVSDYAQMDRVLREERAYILNLVKQIKKTGCNVLLIQKSILRDALSDLALHFLNKMKIMVIKDIEREDIEFICKTIGTKPVAHIDQFTADMLGSAELAEEVNLNGSGKLLKITGCASPGKTVTIVVRGSNKLVIEEAERSIHDALCVIRCLVKKRALIAGGGAPEIELALRLTEYSRTLSGMESYCVRAFADAMEVIPSTLAENAGLNPISTVTELRNRHAQGEKTAGINVRKGGISNILEELVVQPLLVSVSALTLATETVRSILKIDDVVNTR
notes: CCT4 subunit of human TRiC; initiator methionine removed, proline exposed, not acetylated (from the measured mass); also called CCTδ; source: Hi5 (Trichoplusia ni) cells, baculovirus pYC35 co-expressing CCT1-8; purified as hTRiC (calmodulin resin, monoQ, SEC); released by RP-HPLC or by 25% DMSO or methanol
With B1 the binding was “binds”.
